# Measurements reported in the supplement of paper PMC12067093, “Discovery and optimisation of a covalent ligand for TRIM25 and its application to targeted protein ubiquitination” (Chemical Science, 2025).
# Amino acid sequences for entries named in this document (tags omitted). A change or cut given only in a name is not applied to a line headed by its entry.
# UniProt P35813: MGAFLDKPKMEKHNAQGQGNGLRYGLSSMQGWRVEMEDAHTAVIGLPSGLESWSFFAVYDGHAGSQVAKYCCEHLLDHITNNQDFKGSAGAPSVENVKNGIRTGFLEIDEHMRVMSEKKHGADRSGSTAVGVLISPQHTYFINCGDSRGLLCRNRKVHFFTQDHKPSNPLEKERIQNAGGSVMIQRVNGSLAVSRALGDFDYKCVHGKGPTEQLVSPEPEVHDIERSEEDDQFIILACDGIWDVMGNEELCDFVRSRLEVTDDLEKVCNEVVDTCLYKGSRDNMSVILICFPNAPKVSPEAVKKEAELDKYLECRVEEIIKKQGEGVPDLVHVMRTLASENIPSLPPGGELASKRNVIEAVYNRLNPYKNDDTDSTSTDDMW
# UniProt P60510: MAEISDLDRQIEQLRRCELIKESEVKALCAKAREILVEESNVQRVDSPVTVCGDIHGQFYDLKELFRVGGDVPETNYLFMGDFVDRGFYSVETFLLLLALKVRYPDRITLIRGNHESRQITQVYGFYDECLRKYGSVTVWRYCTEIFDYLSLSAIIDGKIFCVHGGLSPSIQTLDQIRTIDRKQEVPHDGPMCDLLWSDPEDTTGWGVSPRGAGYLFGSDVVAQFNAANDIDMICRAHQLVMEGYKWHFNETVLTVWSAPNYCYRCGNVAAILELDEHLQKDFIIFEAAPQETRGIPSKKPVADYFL
# UniProt O95685: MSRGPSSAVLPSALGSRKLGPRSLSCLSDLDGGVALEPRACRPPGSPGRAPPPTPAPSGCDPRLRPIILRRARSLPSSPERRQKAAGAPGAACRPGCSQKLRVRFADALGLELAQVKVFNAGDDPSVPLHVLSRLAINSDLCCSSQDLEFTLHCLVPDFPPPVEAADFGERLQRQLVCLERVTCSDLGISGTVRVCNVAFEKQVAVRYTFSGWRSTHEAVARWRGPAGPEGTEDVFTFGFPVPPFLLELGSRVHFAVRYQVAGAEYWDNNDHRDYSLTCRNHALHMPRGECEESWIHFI
# UniProt Q96QC0: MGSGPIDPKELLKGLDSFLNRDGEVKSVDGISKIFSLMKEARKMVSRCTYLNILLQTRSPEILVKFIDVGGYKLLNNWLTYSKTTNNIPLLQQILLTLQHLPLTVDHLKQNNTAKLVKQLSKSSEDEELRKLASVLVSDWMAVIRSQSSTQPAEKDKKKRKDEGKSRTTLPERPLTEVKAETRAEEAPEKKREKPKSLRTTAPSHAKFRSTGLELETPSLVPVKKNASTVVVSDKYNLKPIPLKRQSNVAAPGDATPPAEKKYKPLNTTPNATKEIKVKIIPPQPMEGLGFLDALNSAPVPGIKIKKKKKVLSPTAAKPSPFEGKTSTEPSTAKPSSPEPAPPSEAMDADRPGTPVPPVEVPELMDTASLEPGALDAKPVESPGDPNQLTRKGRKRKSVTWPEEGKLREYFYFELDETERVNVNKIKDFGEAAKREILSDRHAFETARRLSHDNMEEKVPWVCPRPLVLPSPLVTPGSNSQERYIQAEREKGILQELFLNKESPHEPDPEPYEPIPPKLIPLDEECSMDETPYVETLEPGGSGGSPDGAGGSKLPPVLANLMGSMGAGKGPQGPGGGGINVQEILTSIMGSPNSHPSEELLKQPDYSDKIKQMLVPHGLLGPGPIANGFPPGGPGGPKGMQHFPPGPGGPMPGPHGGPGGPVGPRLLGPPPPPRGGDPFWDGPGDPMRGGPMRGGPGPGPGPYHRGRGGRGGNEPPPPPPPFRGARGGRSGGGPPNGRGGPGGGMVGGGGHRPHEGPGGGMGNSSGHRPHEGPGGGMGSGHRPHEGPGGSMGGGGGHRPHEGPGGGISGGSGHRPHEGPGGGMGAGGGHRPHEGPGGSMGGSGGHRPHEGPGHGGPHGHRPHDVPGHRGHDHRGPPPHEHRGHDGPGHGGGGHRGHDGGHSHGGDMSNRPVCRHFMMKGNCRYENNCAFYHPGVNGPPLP
# UniProt O75688: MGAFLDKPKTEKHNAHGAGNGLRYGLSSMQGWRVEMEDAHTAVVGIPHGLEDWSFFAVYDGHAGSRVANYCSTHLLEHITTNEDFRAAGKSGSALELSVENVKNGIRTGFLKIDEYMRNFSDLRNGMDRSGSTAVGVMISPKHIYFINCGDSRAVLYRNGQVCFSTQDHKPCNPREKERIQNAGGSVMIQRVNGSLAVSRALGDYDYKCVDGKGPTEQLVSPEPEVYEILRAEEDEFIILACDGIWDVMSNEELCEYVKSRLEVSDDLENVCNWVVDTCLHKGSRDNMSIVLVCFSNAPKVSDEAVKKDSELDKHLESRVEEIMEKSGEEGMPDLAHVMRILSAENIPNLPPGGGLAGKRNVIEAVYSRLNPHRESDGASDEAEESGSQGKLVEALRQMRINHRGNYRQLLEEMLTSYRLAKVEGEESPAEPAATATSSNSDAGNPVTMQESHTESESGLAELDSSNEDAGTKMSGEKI
# UniProt Q9HCU5: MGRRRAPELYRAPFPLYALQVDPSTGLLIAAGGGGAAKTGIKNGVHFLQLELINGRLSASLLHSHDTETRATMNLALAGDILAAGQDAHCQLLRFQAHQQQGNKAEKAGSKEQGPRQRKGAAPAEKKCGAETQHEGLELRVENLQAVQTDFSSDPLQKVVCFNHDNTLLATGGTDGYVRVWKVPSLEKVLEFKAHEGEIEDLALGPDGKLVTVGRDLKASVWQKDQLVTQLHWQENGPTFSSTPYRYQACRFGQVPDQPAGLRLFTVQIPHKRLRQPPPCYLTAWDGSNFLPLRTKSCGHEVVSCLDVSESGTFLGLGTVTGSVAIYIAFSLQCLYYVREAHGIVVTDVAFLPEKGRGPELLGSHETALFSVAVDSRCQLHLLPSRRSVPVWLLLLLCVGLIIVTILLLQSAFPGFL
# UniProt O00743: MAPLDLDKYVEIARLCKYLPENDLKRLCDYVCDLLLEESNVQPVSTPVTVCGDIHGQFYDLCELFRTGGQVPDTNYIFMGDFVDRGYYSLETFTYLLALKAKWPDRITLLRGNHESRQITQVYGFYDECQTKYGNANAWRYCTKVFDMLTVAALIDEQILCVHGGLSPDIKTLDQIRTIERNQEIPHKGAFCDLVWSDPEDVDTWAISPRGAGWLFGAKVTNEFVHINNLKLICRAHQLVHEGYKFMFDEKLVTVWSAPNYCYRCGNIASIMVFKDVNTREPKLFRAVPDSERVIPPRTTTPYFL
# UniProt Q8TF05: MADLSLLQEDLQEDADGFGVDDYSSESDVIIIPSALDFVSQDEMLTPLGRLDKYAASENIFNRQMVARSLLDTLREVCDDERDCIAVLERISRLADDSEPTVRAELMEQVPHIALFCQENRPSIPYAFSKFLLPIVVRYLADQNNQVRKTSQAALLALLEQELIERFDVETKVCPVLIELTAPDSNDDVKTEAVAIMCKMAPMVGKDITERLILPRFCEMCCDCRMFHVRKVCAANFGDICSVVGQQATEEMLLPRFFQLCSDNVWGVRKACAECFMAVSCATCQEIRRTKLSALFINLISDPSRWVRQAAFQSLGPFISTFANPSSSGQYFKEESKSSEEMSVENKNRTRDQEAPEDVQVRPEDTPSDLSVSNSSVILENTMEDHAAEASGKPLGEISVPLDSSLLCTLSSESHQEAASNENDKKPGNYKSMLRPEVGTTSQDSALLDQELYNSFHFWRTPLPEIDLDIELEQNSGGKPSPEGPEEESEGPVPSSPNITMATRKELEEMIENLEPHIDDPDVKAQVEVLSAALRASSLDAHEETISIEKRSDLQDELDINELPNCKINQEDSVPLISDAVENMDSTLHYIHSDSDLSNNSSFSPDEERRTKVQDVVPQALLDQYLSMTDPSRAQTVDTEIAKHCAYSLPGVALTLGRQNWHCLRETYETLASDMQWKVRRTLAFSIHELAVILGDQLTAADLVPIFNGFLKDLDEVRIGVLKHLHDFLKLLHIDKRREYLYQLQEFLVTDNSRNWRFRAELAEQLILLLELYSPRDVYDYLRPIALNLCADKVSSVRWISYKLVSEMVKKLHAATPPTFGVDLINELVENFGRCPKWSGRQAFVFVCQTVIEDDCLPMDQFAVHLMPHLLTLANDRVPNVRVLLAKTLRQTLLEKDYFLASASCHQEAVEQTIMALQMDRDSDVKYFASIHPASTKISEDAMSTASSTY
# UniProt P30154, whole entry, looked up: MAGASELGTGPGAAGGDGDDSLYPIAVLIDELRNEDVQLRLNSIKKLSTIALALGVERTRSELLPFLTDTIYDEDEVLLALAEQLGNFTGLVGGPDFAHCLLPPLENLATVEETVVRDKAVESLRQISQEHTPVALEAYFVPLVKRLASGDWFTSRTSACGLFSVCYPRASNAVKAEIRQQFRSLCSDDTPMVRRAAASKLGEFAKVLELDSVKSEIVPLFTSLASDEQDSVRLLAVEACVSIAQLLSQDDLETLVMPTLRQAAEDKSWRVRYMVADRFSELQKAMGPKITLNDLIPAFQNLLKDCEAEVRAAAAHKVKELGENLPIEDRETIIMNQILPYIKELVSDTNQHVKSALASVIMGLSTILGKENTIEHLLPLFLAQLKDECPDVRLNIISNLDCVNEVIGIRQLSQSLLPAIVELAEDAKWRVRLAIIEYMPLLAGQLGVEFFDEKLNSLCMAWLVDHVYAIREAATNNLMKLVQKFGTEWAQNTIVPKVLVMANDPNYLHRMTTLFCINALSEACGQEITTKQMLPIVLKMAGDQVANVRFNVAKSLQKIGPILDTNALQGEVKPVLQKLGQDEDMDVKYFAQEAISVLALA
# UniProt P30153, whole entry, looked up: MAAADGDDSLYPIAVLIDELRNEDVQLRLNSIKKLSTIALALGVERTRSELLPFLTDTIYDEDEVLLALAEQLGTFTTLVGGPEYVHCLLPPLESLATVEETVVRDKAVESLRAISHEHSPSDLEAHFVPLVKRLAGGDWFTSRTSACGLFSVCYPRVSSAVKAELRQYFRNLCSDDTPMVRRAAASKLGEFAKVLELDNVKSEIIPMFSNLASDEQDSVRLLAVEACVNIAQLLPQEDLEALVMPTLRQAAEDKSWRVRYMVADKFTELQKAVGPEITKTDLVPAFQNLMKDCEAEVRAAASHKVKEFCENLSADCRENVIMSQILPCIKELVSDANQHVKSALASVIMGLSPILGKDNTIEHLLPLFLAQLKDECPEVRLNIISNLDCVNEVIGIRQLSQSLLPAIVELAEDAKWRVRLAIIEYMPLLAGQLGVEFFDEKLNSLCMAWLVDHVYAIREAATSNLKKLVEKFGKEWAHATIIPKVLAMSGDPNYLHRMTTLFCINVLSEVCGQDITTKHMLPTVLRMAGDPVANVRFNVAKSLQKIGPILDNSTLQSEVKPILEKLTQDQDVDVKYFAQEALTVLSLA
# UniProt B7ZBB8: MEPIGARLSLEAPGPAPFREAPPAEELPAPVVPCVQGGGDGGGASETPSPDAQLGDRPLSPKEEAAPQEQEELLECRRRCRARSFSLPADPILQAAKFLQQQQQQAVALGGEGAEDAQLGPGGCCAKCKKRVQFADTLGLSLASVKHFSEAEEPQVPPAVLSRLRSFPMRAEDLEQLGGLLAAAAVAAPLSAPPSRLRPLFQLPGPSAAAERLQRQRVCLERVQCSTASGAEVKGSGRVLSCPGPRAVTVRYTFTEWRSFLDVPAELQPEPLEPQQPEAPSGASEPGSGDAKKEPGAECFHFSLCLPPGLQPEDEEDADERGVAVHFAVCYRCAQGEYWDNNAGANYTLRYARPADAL
# UniProt P78395, whole entry: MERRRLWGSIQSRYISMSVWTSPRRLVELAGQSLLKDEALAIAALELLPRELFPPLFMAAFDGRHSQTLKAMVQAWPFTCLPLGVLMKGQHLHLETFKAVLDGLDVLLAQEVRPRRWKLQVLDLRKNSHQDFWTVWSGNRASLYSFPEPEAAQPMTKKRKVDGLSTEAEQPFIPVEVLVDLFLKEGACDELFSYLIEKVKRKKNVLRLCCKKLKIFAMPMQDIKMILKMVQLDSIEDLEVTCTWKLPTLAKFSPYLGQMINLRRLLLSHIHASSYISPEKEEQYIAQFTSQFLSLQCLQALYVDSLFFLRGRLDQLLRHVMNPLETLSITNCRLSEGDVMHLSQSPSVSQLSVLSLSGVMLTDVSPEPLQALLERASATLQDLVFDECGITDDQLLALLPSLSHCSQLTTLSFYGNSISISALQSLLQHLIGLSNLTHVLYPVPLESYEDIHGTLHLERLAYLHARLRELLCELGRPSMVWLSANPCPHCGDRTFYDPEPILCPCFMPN
# UniProt P50897: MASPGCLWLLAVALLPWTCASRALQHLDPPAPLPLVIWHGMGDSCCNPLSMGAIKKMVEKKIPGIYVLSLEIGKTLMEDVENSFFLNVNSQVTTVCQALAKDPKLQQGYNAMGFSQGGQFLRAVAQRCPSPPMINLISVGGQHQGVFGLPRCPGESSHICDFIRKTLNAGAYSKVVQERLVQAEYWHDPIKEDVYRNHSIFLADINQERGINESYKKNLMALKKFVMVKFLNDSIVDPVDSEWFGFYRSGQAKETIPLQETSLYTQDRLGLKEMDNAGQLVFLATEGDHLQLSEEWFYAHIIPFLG
# This is one part of the list.
# Compound: CC1Cc2ccccc2N1C(=O)C1CCCN(C1)C(=O)CCl (mixture of isomers) [TRIM25 ligand 11 (diastereomer mixture)]
# Assay: probe-labelled cysteine peptide fold change vs DMSO (competition) (log2 fold change); higher = less target engagement (more negative = stronger competition)
# Settings: 50 µM; THP-1; incubation time: 4 h
# 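Note: competitive chemoproteomic profiling in live THP-1 cells with an iodoacetamide desthiobiotin (IA-DTB) probe, comparing probe-labelled peptide intensities in compound-treated cells against DMSO-treated controls.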
row,Target,probe-labelled cysteine peptide fold change
1,PPM1A_P35813_268_VCNEVVDTCLYK (UniProt P35813),-0.0672
2,PPP4C_P60510_235_GAGYLFGSDVVAQFNAANDIDMICR (UniProt P60510),-0.148
3,PPP1R3D_O95685_279_YQVAGAEYWDNNDHRDYSLTCR (UniProt O95685),-0.0615
4,PPP1R10_Q96QC0_912_GHDGGHSHGGDMSNRPVCR (UniProt Q96QC0),-0.201
5,PREPL_Q4J6C6_227_CHDVYR (UniProt Q4J6C6),0.0105
6,PPM1B_O75688_272_LEVSDDLENVCNWVVDTCLHK (UniProt O75688),0.00825
7,PREB_Q9HCU5_161_VVCFNHDNTLLATGGTDGYVR (UniProt Q9HCU5),0.111
8,PPP6C_O00743_265_CGNIASIMVFK (UniProt O00743),0.0584
9,PPOX_P50336_410_EMPSHCLVHLHK (UniProt P50336),-0.0412
10,PPP6R1_Q9UPN7_455_ILTSWEENDRVQCAGGPR (UniProt Q9UPN7),-0.032
11,PPP6R3_Q5H9R7_519_NTVDLVTTCHIHSSSDDEIDFK (UniProt Q5H9R7),0.025
12,PPP2R5C_Q13362_270_SLSVYHPQLAYCVVQFLEK (UniProt Q13362),-0.00227
13,PPM1E_Q8WY54_307_QEMFPHDPAEALCR (UniProt Q8WY54),-0.337
14,PRDM2_Q13029_875_ESHSVQPTCSAVK (UniProt Q13029),-0.128
15,PPP4R1_Q8TF05_198_TEAVAIMCK (UniProt Q8TF05),0.158
16,PPP2R1B_P30154_389_DECPDVR (UniProt P30154),0.149
17,PPP2R1A_P30153_317_EFCENLSADCR (UniProt P30153),-0.0231
18,PPP6R2_O75170_87_FKYPNTACELLTCDVPQISDR (UniProt O75170),-0.00558
19,PREB_Q9HCU5_280_LRQPPPCYLTAWDGSNFLPLR (UniProt Q9HCU5),-0.165
20,PPM1F_P49593_315_IEALGGFVSHMDCWR (UniProt P49593),0.0407

row,Target,probe-labelled cysteine peptide fold change
1,PREB_Q9HCU5_128_CGAETQHEGLELR (UniProt Q9HCU5),-0.0857
2,PPP2R2A_P63151_398_KVCASGK (UniProt P63151),-0.0725
3,PPP1R3G_B7ZBB8_225_VQCSTASGAEVK (UniProt B7ZBB8),-0.0988
4,PPP1R3G_B7ZBB8_76_EEAAPQEQEELLECR (UniProt B7ZBB8),-0.199
5,PRAME_P78395_188_EGACDELFSYLIEK (UniProt P78395),-0.184
6,PPP2R1A_P30153_377_DECPEVR (UniProt P30153),0.248
7,PPT1_P50897_160_CPGESSHICDFIR (UniProt P50897),-0.0313
8,PPWD1_Q96BP3_512_LFPVECPK (UniProt Q96BP3),-0.0164
9,PPT1_P50897_152+160_CPGESSHICDFIRK (UniProt P50897),-0.457
10,PPP4R1_Q8TF05_84_EVCDDERDCIAVLER (UniProt Q8TF05),0.0159
11,PRAG1_Q86YV5_221_LAAFAGTTSGCHQGPGPLR (UniProt Q86YV5),-0.333
12,PRDX3_P30048_229_AFQYVETHGEVCPANWTPDSPTIKPSPAASK (UniProt P30048),-0.0995
13,PPP2R2D_Q66LE6_245_SFNIVDIKPANMEELTEVITAAEFHPHQCNVFVYSSSK (UniProt Q66LE6),-0.0846
14,PREB_Q9HCU5_378_CQLHLLPSRR (UniProt Q9HCU5),0.318
15,PPM1A_P35813_72_YCCEHLLDHITNNQDFK (UniProt P35813),-0.154
16,PPP4R3A_Q6IN85_180_LLELFHVCEDLENIEGLHHLYEIIK (UniProt Q6IN85),0.265
17,PPP2R1A_P30153_310+317_EFCENLSADCR (UniProt P30153),-0.0288
18,PPM1H_Q9ULR3_239_IPHECLVIGALESAFK (UniProt Q9ULR3),0.00172
19,PPIP5K2_O43314_488_KVQLTYLPHGCPK (UniProt O43314),-0.182
20,PPP1R10_Q96QC0_463_VPWVCPR (UniProt Q96QC0),-0.298
